Numbering of substitutions follows the chain as printed. In names and notes the source's numbering stands. No constants are given. Whether binding was seen depends on the method and setting. For some assays here: In cells and extracts the contact can be indirect. Some entries that bind do so weakly or less than the wild type. For some assays here: Where a sequence is shown, tags or fusion partners need not be part of it.
B1: Mtgr1 (myeloid translocation gene related 1), endogenous in mESCs (protein, UniProt O70374 1-594)
chain: MVGVPGAAAFQLGCEKRVPAMPGSPVEVKIQSRSSPPIMPPLPPINPGGPRPVSFTPTALSNGINHSPPTLNGAPSPPQRFSNGPASSTSSALTNQQLPATCGARQLSKLKRFLTTLQQFGNDISPEIGEKVRTLVLALVNSTVTIEEFHCKLQEATNFPLRPFVIPFLKANLPLLQRELLHCARAAKQTPSQYLAQHEHLLLNTSIASPADSSELLMEVHGNGKRPSPERRDENNFERDTVPPEPPAKRVCTISPAPRHSPALTVPLMNPGGQFHPTPPPLQHYTLEDIATSHLYREPNKMLEHREVRERHHNLSLNGGYQDELVDHRLTEREWADEWKHLDHALNCIMEMVEKTRRSMAVLRRCQESDREELNYWKRRFNENTELRKTGTELVSRQHSPGSTDSLSNDSQREFTSRPATGYVPVEFWKKTEEAVNKVKIQAMSEVQKAVAEAEQKAFEVIATERARMEQTIADVKRQAAEDAFLVINEQEESTENCWNCGRKASETCSGCNIARYCGSFCQHKDWERHHRLCGQSLHGHSPHSQSRPLLPGGRGSARSADCSVPSPALDKTSATTSRSSTPASVTAIDANGL
B2: full-length V5-tagged Mtgr1 expressed in HEK293 cells (protein, UniProt O70374 1-594)
chain: B1 chain
B3: full-length V5-Mtgr1 K109E expressed in HEK293 cells (protein, UniProt O70374 1-594)
chain: B1 chain with K109E
B4: recombinant Prdm14 SET domain alone (residues 232–373) (domain or fragment, UniProt E9Q3T6 232-373)
chain: LDKDSLQLPEGLCLMQTSFGDVPHFGVFCSDFIAKGVRFGPFRGRVVNASEVKAHRDNSRMWEIFEDGHLSHFIDGKGSGNWMSYVNCARFPKEQNLLAVQHQGQIFYESCRDIQRNQELLVWYGNGYEKFLGVPMNLRVTE
modifications: biotin
B5: recombinant Prdm14 (residues 184–373) E294K (domain or fragment, UniProt E9Q3T6 184-373)
chain: GFNFTEEELSFVLYGAIASPEHPTDLQHAISGILVPTESSGSNHLHKTLDKDSLQLPEGLCLMQTSFGDVPHFGVFCSDFIAKGVRFGPFRGRVVNASEVKAHRDNSRMWKIFEDGHLSHFIDGKGSGNWMSYVNCARFPKEQNLLAVQHQGQIFYESCRDIQRNQELLVWYGNGYEKFLGVPMNLRVTE
modifications: biotin (biotin-acceptor tag)
B6: recombinant Prdm14 pre-SET+SET domains (residues 184–373) (domain or fragment, UniProt E9Q3T6 184-373)
chain: B5 chain with K111E
modifications: biotin (biotin-acceptor tag)

Experiments:
[1] = target: T1, endogenous Prdm14 of wt mESCs (mouse (endogenous in mESCs)) (UniProt E9Q3T6); test: pull-down; proteins co-precipitated with Prdm14 that was captured by monobody on M280 streptavidin dynabeads from FH-Prdm14 or wt mESC extracts; Western blot
T1 sequence: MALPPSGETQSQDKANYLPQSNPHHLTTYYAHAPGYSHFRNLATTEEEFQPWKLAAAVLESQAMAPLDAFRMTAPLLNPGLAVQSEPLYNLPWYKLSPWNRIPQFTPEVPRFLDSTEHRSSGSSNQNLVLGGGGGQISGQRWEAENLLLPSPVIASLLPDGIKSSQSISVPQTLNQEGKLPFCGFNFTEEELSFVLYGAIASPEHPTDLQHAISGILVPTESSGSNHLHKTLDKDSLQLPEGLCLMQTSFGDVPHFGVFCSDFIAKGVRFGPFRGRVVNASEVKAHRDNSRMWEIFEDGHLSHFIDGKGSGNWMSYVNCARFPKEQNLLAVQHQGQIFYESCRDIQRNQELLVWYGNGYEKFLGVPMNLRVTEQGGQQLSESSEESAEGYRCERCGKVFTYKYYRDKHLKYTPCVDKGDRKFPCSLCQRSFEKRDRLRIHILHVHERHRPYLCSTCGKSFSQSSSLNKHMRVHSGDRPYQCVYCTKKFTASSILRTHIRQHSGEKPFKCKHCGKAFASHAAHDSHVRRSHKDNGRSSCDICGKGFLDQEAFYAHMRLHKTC

[2] = target: T2, FLAG–HA tagged Prdm14 (FH-Prdm14), stably expressed in mESCs (mouse) (UniProt E9Q3T6); test: as above
T2 sequence: T1 sequence

[3] = target: T2, FLAG–HA tagged Prdm14 (FH-Prdm14), stably expressed in mESCs (mouse); test: co-IP; reciprocal Mtgr1 and Prdm14 co-immunoprecipitations from FH-Prdm14 mESC nuclear extracts
[4] = target: T3, full-length FH-Prdm14 E294K expressed in HEK293 cells (mouse) (UniProt E9Q3T6); test: co-IP; HEK293 cells transfected with V5-Mtgr1 and FH-Prdm14 constructs; immunoblot with α-HA and α-V5
T3 sequence: T1 sequence with E294K

[5] = target: T4, full-length FH-Prdm14 expressed in HEK293 cells (mouse) (UniProt E9Q3T6); test: as above
T4 sequence: T1 sequence

[6] = target: T5, recombinant Mtgr1 NHR1 domain (residues 98–206) (mouse) (UniProt O70374); test: bead-based binding assay; biotinylated Mtgr1 (NHR1) immobilised on streptavidin M280 beads, biotinylated Prdm14 in solution, detected with SAV-Dylight650 by flow cytometer; 50 mM Tris–HCl, 150 mM NaCl, pH 8, 1 mg/ml BSA, 1 mM EDTA, 0.1 mM DTT; 1:1 model; both purified
T5 sequence (chain, biotin (biotin-acceptor tag)): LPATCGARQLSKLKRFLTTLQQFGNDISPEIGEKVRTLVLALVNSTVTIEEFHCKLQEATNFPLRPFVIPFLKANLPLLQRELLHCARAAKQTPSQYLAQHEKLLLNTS

[7] = target: T6, recombinant Mtgr1 NHR1 domain (residues 98–206) K109E (mouse) (UniProt O70374); test: as above
T6 sequence (chain, biotin (biotin-acceptor tag)): T5 sequence (chain, biotin (biotin-acceptor tag)) with K12E

[8] = target: T7, recombinant Mtgr1 NHR1 domain (residues 98–206) R105D (mouse) (UniProt O70374); test: as above
T7 sequence (chain, biotin (biotin-acceptor tag)): T5 sequence (chain, biotin (biotin-acceptor tag)) with R8D

Row | Binder | binding [4] | binding [5] | binding [6] | further results
1 | B1 |  |  |  | binding [1]: binds; binding [2]: binds; binding [3]: binds
2 | B2 | no binding | binds |  | 
3 | B3 | binds | no binding |  | 
4 | B4 |  |  | binds weakly | 
5 | B5 |  |  | no binding | 
6 | B6 |  |  |  | binding [7]: no binding; binding [8]: no binding

— article PMC4749557
